Data published in PubChem BioAssay AID1688 (National Center for Advancing Translational Sciences (NCATS), 2009).
The whole screen tested about 220,000 compounds, of which about 2,400 (1.1%) were called active. Inconclusive means that the source gave no clear call. Such entries were picked first, then a sample of the others. Calls follow the shape of the dose curve; as a rule, active = well fitted inhibition curve with a large enough effect; inconclusive = small, poorly fitted or top-dose-only effect, or effect the other way; inactive = no such curve, though single readings can be large or run the other way. Potencies beside an inconclusive call are fits to weak or partial responses and may not hold up.

Test: qHTS Multiplex Assay to Identify Dual Action Probes in a Cell Model of Huntington: Aggregate Formation (GFP); also: nearly all actives have a fitted effect of over 60% in size
Settings: PC12 HttQ103-GFP aggregates, Acumen cytometry, 40 h; activity change, negative = inhibition: at 46.1 µM (top of the series) unless noted
Summary of the method: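 PC12/HTTQ103-GFP, ecdysone-inducible; teb 100 nM; cpd qHTS titration; GFP aggregates read on laser cytometer, Ex 488/Em 500-530 nm.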
% is scaled to controls: 0 for no effect and ±100 for the full control effect; potency is read from the fitted curve at half-maximal effect.

Compound	Potency	activity change, negative = inhibition
Cc1cc(C(C)(C)C)cc(C)c1Cn1c2[n+](c3ccc(C(F)(F)F)cc31)CCCCC2	inconclusive: 35.5 µM [inhibitor, single point]	
CCSc1ccc2cc(OC)ccc2[n+]1CC	active: 8.91 µM	
COC(=O)c1sc(NC(=O)CSc2n[nH]c(N)n2)c(C(=O)OC)c1C	inconclusive: 1.41 µM [inhibitor, partial curve]	
CCCC(=O)OCCNc1cc(Sc2nc3ccccc3[nH]2)c2nonc2c1[N+](=O)[O-]	inconclusive: 31.6 µM [inhibitor, single point]	
COc1ccc(OC)c(-c2cc(C(=O)N3CCc4ccccc4C3)no2)c1	inconclusive: 35.5 µM [inhibitor, single point]	
O=[N+]([O-])c1ccc(/C=N/Nc2nc(N3CCOCC3)nc(N3CCOCC3)n2)cc1	inconclusive: 5.01 µM [inhibitor, single point]	
CC(=O)c1c(C)[nH]c(C(=O)CN2C(=O)NC(C)(CCC(C)C)C2=O)c1C (centres undefined)		inactive: 28.6%
O=C(c1ccc2c3c(cccc13)C(=O)N(O)C2=O)N1CCCCC1	inconclusive: 17.8 µM [activator, partial curve]	
COc1cc(C2c3c(n[nH]c3C)C(=O)N2c2ccc(Br)cc2)ccc1O (centres undefined)	inconclusive: 35.5 µM [activator, single point]	
COCCNc1nc2c(c(=O)n(C)c(=O)n2C)n1Cc1cccc(C)c1	active: 15.8 µM	
C/C(=N\NC(=O)Cc1cccn1C)c1ccc2ccccc2c1	inconclusive: 20 µM [inhibitor, single point]	
CN(Cc1ccccc1)c1nc2c(c(=O)n(C)c(=O)n2C)n1CCSc1ncccn1	inconclusive: 1.12 µM [activator, partial curve]	
CSc1ccc(N/N=C(/C#N)S(=O)(=O)C(C)(C)C)cc1	inconclusive: 17.8 µM [inhibitor, partial curve]	
Cc1ccc(-c2nn(-c3ccccc3)cc2/C=N/NS(=O)(=O)c2ccccc2)cc1	inconclusive: 22.4 µM [inhibitor, single point]	
CN1CCN(c2ccc(Cl)cc2NC(=O)c2ccc(S(=O)(=O)N3CCCCCC3)cc2)CC1	inconclusive: 20 µM [inhibitor, partial curve, poor fit]	
Cc1ccccc1N1C(S)=C(C#N)C(=O)NC12CCCCC2		inactive: -10.1%
O=C(NNc1c2ccccc2nc2ccccc12)c1ccc(O)cc1	inconclusive: 3.16 µM [inhibitor, partial curve]	
COc1ccc(NS(=O)(=O)c2cc(NC(=O)C3CC3)ccc2N2CCCCC2)cc1	inconclusive: 35.5 µM [inhibitor, single point]	
NC(N)=N/N=C/c1cccc([N+](=O)[O-])c1O		inactive: 9.97%
CCOC(=O)C(CCC(=O)O)(CCC(C)C)c1csc(N)n1 (centres undefined)	inconclusive: 10 µM [activator, partial curve]	
COc1cc(N2CCCC2)c(OC)cc1/C=C(/C#N)c1cccc(F)c1	inconclusive: 35.5 µM [inhibitor, single point]	
Cc1cccc(OCC(=O)Nc2nnc(-c3ccco3)s2)c1	inconclusive: 7.08 µM [activator, partial curve]	
CC(=O)C1=NN(c2ccccc2)C(c2cccs2)N1c1ccccc1 (centres undefined)	inconclusive: 25.1 µM [inhibitor, single point]	

Reprinted at random: 4 entries already listed, in no set order.
Compound	Potency	activity change, negative = inhibition
O=C(NNc1c2ccccc2nc2ccccc12)c1ccc(O)cc1	inconclusive: 3.16 µM [inhibitor, partial curve]	
COc1cc(N2CCCC2)c(OC)cc1/C=C(/C#N)c1cccc(F)c1	inconclusive: 35.5 µM [inhibitor, single point]	
CCOC(=O)C(CCC(=O)O)(CCC(C)C)c1csc(N)n1 (centres undefined)	inconclusive: 10 µM [activator, partial curve]	
CCSc1ccc2cc(OC)ccc2[n+]1CC	active: 8.91 µM	

Later entries:

Compound	Potency	activity change, negative = inhibition
Cc1ccc(C2N(c3ccc(Cl)c(Cl)c3)C(=O)C3CCCN32)o1 (centres undefined)		inactive: -1.51%
O=C(Nc1ccccc1Cl)Nc1cccnc1Cl	inconclusive: 14.1 µM [inhibitor, single point]	
Cc1nnc(NC(=O)CSc2nnnn2Cc2ccccc2)s1	active: 0.355 µM	
CCOc1ccc2nc(SCc3ccc(F)cc3)sc2c1	inconclusive: 35.5 µM [activator, single point]	
CC(C)(CO)N=Cc1c(O)[nH]c2ccccc12		inactive: -16.4%
Cc1c(C(=O)NCc2ccc3c(c2)OCO3)oc2ccc(S(=O)(=O)N3CCCC3)cc12	inconclusive: 35.5 µM [inhibitor, single point]	
CC1(OC(=O)C2CCCC2)C(=O)C=C2C=C(c3ccsc3)N(C3CCCCC3)C=C2C1=O (centres undefined)		inactive: 27.5% [at 9.22 µM]
Clc1ccc(-c2nn3c(-c4ccccc4)nnc3s2)cc1		inactive: -16.2% [at 9.22 µM]
Cc1ccc(SCCNC(=S)Nc2ccc(C)c(C)c2)cc1	inconclusive: 14.1 µM [inhibitor, single point]	
CC(C)CCn1cnc2c(cnn2-c2ccc(F)cc2)c1=O		inactive: -32%
COC(=O)c1c(NC(=O)/C=C/C(=O)O)sc(C)c1-c1ccc(C)c(C)c1	inconclusive: 2.51 µM [activator, partial curve]	
Cc1cc(NS(=O)(=O)c2ccc(C3CCCCC3)cc2)no1	inconclusive: 1.26 µM [inhibitor, single point]	
CCC(=O)NC(c1ccc([N+](=O)[O-])cc1)c1c(O)ccc2ccccc12 (centres undefined)	inconclusive: 12.6 µM [inhibitor, partial curve]	
Clc1nn2cnnc2c2ccccc12	inconclusive: 1.26 µM [activator, single point]	
COc1ccc(C(c2nnnn2C2CCCC2)N2CCC(C)CC2)c(OC)c1 (centres undefined)	inconclusive: 35.5 µM [inhibitor, single point]	
C(=N\Nc1nc2ccccc2[nH]1)/c1cccs1	inconclusive: 35.5 µM [inhibitor, single point]	
Cc1cc(C)c(NC(=O)COC(=O)/C=C/c2cccc(C(F)(F)F)c2)c(C)c1	inconclusive: 5.62 µM [inhibitor, single point]	
CCCCc1nnc(NC(=O)CN2C(=O)c3ccccc3C2=O)s1		inactive: 13.4%
CC(C)(C)c1ccc(CN2N=C(/C=C/c3ccccc3)CCC2=O)cc1	inconclusive: 22.4 µM [inhibitor, single point]	
CC1=CC(C)(C)Nc2ccc(OC(=O)CN3C(=O)c4ccccc4C3=O)cc21	inconclusive: 35.5 µM [inhibitor, single point]	
CSc1ccc(-c2nc(CN3CCCCC3c3cccnc3)c(C)o2)cc1 (centres undefined)	inconclusive: 22.4 µM [inhibitor, single point]	
O=C(O)CCC(=O)Nc1ccccc1Oc1ccccc1		inactive: 31.2%
CCCc1cc(-c2[nH]ncc2-c2ccc3c(c2)OCCCO3)c(O)cc1OC	inconclusive: 22.4 µM [inhibitor, single point]	

Compound	Potency	activity change, negative = inhibition
O=C(Nc1cccs1)Nc1c(F)c(F)c(F)c(F)c1F	inconclusive: 11.2 µM [inhibitor, partial curve]	
CC1CCc2c(C(=O)Nc3nccs3)csc2C1 (centres undefined)		inactive: -28.1%
c1ccc(Nc2nc(N3CCCCC3)nc(N3CCCCC3)n2)cc1		inactive: 4.27% [at 9.22 µM]
COc1ccc(OC)c(/C=N/NC(=O)c2ccc3nc[nH]c3c2)c1		inactive: -7.89% [at 9.22 µM]
S=C(NCc1ccco1)N1CCN(c2nc(-c3ccc(Cl)cc3)cs2)CC1	inconclusive: 35.5 µM [inhibitor, single point]	
COc1ccc(-c2cc(-c3ccc(OC)cc3)[nH]n2)cc1		inactive: -13%
Cc1cc(C)c(S(=O)(=O)N2CCOC2CNC(=O)C(=O)NCc2ccco2)c(C)c1 (centres undefined)	inconclusive: 3.55 µM [activator, partial curve, poor fit]	
COc1cc(Cl)c(C)cc1NC(=O)CNC(=O)Cn1cnc2ccccc2c1=O	inconclusive: 1 µM [inhibitor, single point]	
Cc1ccccc1-n1cc[nH]c1=S		inactive: 1.93%
N#C/C(=C(/O)CN1CCN(c2ccccc2F)CC1)c1nc(-c2ccccc2)cs1	inconclusive: 10 µM [inhibitor, partial curve]	
O=C(COc1cc(F)ccc1[N+](=O)[O-])Nc1cccc(Br)c1		inactive: 6.72%
CCCC(=O)Nc1ccc(Sc2ccc([N+](=O)[O-])cc2)cc1	inconclusive: 35.5 µM [inhibitor, single point]	
CCCCN(CCCC)C(=O)CSc1nnc(-c2cc(OC)c(OC)c(OC)c2)o1	inconclusive: 35.5 µM [inhibitor, single point]	
CCN1CCN(C(=O)Nc2cc(Cl)ccc2OC)CC1		inactive: -3.61% [at 9.22 µM]
O=C(c1ccccc1F)N1CCN(Cc2ccccc2F)CC1	inconclusive: 8.91 µM [inhibitor, partial curve]	
COc1ccc(CNC(=O)C(c2cccs2)N(Cc2ccco2)C(=O)Cc2cccs2)cc1 (centres undefined)	inconclusive: 35.5 µM [inhibitor, single point]	
O=C(Cc1ccccc1F)Nc1nc(-c2cccnc2)cs1	inconclusive: 5.62 µM [inhibitor, single point]	
CC(C)(C)C(=O)Cn1ncc(Cl)c(Cl)c1=O	inconclusive: 28.2 µM [inhibitor, single point]	
CCCCc1oc2ccccc2c1C(=O)c1cc(I)c(OCCN(CC)CC)c(I)c1	inconclusive: 22.4 µM [inhibitor, partial curve, poor fit]	
O=[N+]([O-])c1cccc(-c2ccc(/C=N/NC(=S)Nc3ccccc3)o2)c1	inconclusive: 1.41 µM [activator, full curve, poor fit]	
COc1ccc(Cn2c(O)c(/C=N/NC(=O)c3cccnc3)c3ccccc3c2=O)cc1	inconclusive: 14.1 µM [inhibitor, partial curve]	
O=C(Nc1ccc(N2CCN(C(=O)c3ccccc3)CC2)c(Cl)c1)c1ccco1	active: 22.4 µM	
COc1nc(N(C)S(=O)(=O)c2ccc(C)cc2)nc(C)c1Cl	inconclusive: 7.94 µM [inhibitor, partial curve]	
